Laboratory results: publication PMC11427100
No constants are given. Whether binding was seen depends on the method and setting. In cells and extracts the contact can be indirect. Here binding means that the protein was enriched with, or labelled near, the bait; the list need not be complete. Sequences can lack the tags named with a protein.

By UniProt entry, the sequences of proteins in these tests, tags left out.
UniProt Q6R891: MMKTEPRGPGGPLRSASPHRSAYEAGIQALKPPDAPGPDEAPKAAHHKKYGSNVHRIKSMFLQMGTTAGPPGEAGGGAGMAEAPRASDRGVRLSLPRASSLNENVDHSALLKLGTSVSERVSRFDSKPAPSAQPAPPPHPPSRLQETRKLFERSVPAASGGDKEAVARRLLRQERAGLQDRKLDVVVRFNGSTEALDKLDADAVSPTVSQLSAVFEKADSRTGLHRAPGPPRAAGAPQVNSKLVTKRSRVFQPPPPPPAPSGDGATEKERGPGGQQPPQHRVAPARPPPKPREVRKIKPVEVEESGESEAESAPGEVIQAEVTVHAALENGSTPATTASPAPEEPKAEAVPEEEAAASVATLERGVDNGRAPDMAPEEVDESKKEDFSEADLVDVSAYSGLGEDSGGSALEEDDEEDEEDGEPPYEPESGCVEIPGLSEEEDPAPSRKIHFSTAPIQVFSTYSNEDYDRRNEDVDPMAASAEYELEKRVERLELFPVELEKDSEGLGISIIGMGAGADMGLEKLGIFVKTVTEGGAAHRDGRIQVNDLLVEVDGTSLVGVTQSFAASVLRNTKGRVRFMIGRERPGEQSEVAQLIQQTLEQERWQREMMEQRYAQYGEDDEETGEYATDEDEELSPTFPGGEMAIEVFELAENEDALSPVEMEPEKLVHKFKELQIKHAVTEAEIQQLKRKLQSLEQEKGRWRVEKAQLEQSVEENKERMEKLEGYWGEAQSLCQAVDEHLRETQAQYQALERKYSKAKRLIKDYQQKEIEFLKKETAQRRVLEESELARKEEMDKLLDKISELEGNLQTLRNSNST

B1: CUB and zona pellucida-like domain-containing protein 1 (protein, UniProt P70412 20-607)
chain: QLNSTEAEGKSRCTASLGGANLGETHKALVLQLSANENCTWTIERPENRSIRIIFSYIKLDPGSRCETENIKVFDGSSTSGPLLGKACSRNDFVPVFESSSNSMTFQIVTGLTKFPRSVFIFYYFFSAATVIPNCGGDLRALEGSFSSPNYPKPHPELAYCVWHIQVGKGYKIQLKFTDLLLEMDENCKFDFIAVYDGPSTTAGLLKQLCGRGKPTLESSSDAMTVVLSTDYANSYKGFSASYTSIYIHDVNTTSLSCVSDKMRVIISKSYLPALNYNESNLQLNDPTCRPNVSNVIEFSIPLHECGTVKKIEDHAISYTNRITFIESPVSAVITRQKLLQIVVTCEMEYNSTVEIMYITEDDIIQNQSVLGKYNTSLALYESDSFENLVQESPYYVDLNQTLFVQATLHTSDPSLVVFLDTCRASPTSDFASPTYDLISSGCCQDETCKVYPLFGHYGRFQFNAFKFLKHLNSVYLKCKILICDNNDQTSRCNQGCVPRRKRDIPSYKWKTDSVIGPIRLKRDRSASRDSGLLPQIHEAEISNQPLSRLYLFSFMVLALNVVIVAITTVKHFLNRWMDHRYQKLQVY
B2: Collagen α-2 (VI) chain (protein, UniProt Q02788 26-1034)
chain: QQQEAISPQEQEAVSPDISTTERNNNCPEKADCPVNVYFVLDTSESVAMQSPTDSLLYHMQQFVPQFISQLQNEFYLDQVALSWRYGGLHFSDQVEVFSPPGSDRASFTKSLQGIRSFRRGTFTDCALANMTQQIRQHVGKGVVNFAVVITDGHVTGSPCGGIKMQAERAREEGIRLFAVAPNRNLNEQGLRDIANSPHELYRNNYATMRPDSTEIDQDTINRIIKVMKHEAYGECYKVSCLEIPGPHGPKGYRGQKGAKGNMGEPGEPGQKGRQGDPGIEGPIGFPGPKGVPGFKGEKGEFGSDGRKGAPGLAGKNGTDGQKGKLGRIGPPGCKGDPGSRGPDGYPGEAGSPGERGDQGAKGDSGRPGRRGPPGDPGDKGSKGYQGNNGAPGSPGVKGGKGGPGPRGPKGEPGRRGDPGTKGGPGSDGPKGEKGDPGPEGPRGLAGEVGSKGAKGDRGLPGPRGPQGALGEPGKQGSRGDPGDAGPRGDSGQPGPKGDPGRPGFSYPGPRGTPGEKGEPGPPGPEGGRGDFGLKGTPGRKGDKGEPADPGPPGEPGPRGPRGIPGPEGEPGPPGDPGLTECDVMTYVRETCGCCDCEKRCGALDVVFVIDSSESIGYTNFTLEKNFVINVVNRLGAIAKDPKSETGTRVGVVQYSHEGTFEAIRLDDERVNSLSSFKEAVKNLEWIAGGTWTPSALKFAYNQLIKESRRQKTRVFAVVITDGRHDPRDDDLNLRALCDRDVTVTAIGIGDMFHETHESENLYSIACDKPQQVRNMTLFSDLVAEKFIDDMEDVLCPDPQIVCPELPCQTELYVAQCTQRPVDIVFLLDGSERLGEQNFHKVRRFVEDVSRRLTLARRDDDPLNARMALLQYGSQNQQQVAFPLTYNVTTIHEALERATYLNSFSHVGTGIVHAINNVVRGARGGARRHAELSFVFLTDGVTGNDSLEESVHSMRKQNVVPTVVAVGGDVDMDVLTKISLGDRAAIFREKDFDSLAQPSFFDRFIRWIC
B3: Ribonuclease pancreatic (protein, UniProt P00683 26-149)
chain: RESAAQKFQRQHMDPDGSSINSPTYCNQMMKRRDMTNGSCKPVNTFVHEPLADVQAVCSQENVTCKNRKSNCYKSSSALHITDCHLKGNSKYPNCDYKTTQYQKHIIVACEGNPYVPVHFDATV

What follows are binders tested against Spinophilin (mouse (endogenous in pancreas and isolated islets)) (UniProt Q6R891) (assay: affinity purification with mass spectrometry; spinophilin immunoprecipitated from pancreas of WT chow-fed, WT high-fat diet-fed and Spino^-/- high-fat diet-fed male mice; on-bead digestion, TMT10plex; hits filtered by WT/KO log2 fold-enrichment of 0.5 and two unique peptides, listed hits increased in HFF vs. lean).

binding, binds:
B1
B2
B3
